Experimental data taken from PubChem BioAssay AID504834 (National Center for Advancing Translational Sciences (NCATS), 2011).
The whole screen tested about 320,000 compounds, of which about 22,000 (6.9%) were called active. Inconclusive means that the source gave no clear call. Such entries were picked first, then a sample of the others. Calls follow the shape of the dose curve; as a rule, active = well fitted inhibition curve with a large enough effect; inconclusive = small, poorly fitted or top-dose-only effect, or another doubt; inactive = no such curve, though single readings can be large or run the other way. Potencies of inconclusive entries are doubtful fits and often do not repeat.

Test: Primary qHTS for delayed death inhibitors of the malarial parasite plastid, 96 hour incubation
Details: P. falciparum luciferase reporter growth; series mostly up to 28.7 µM
In short: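 P. falciparum expressing integrated firefly luciferase, in erythrocytes at 2% hematocrit, 0.05% parasitemia, incubated with compounds 96 h at 37 C, 5% CO2. Growth inhibition read as loss of luminescence; two-generation exposure targets delayed-death apicoplast inhibitors.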
Potency is read from the fitted curve at half-maximal effect.

SMILES | Potency
O=C(Nc1ccccc1O)c1ccc(Cl)cc1 | inconclusive: 0.117 µM [inhibitor, full curve, poor fit]
Cc1ccc(C(=O)N2CCN(S(=O)(=O)c3ccc(Br)cc3)CC2)o1 | inconclusive: 5.22 µM [inhibitor, partial curve]
CC12CN3CC(C)(CN(C1)C3c1cccs1)C2=O (stereo not given) | inconclusive: 2.94 µM [inhibitor, single point]
Cc1nccn1CCCN1C(=O)CNC1=S | inactive
COc1ccc(CNC(=O)CSc2nc(-c3ccccc3)cc(-c3cccs3)c2C#N)cc1 | active: 6.57 µM
CCOC(=O)/C=C1\CN(Cc2cc(OC)c(OC)c(OC)c2)S(=O)(=O)c2ccc(C(F)(F)F)cc21 | inconclusive: 1.47 µM [inhibitor, partial curve, poor fit]
Cc1cc(NC(=O)CSc2nc3c([nH]c4ccccc43)c(=O)n2-c2ccccc2F)no1 | active: 13.1 µM
COc1ccc(/C=C(\NC(=O)c2ccc(C)cc2)C(=O)Nc2ccc(C(=O)O)cc2)cc1 | inconclusive: 11.7 µM [inhibitor, single point]
Cc1cc2nc(SCCOC(=O)Nc3ccc(Cl)cc3)nc(C)c2cc1C | inactive
CCCOP(=O)(OCCC)C(Nc1ccc(C(C)C)cc1)c1ccc([N+](=O)[O-])cc1 (stereo not given) | inconclusive: 9.28 µM [inhibitor, single point]
COc1ccc(S(=O)(=O)N2CCOC2CNC(=O)C(=O)NCc2ccccn2)cc1C (stereo not given) | inactive
Cc1cc(N/N=C/c2ccccc2O)nc(-c2ccccc2O)n1 | inactive
CCC1=Nc2cc(C(=O)NCC3CCCO3)ccc2Sc2ccc(Cl)cc21 (stereo not given) | inconclusive: 4.15 µM [inhibitor, partial curve]
COc1cccc(C(=O)NC2CCN(CC(=O)Nc3cccc(C)c3C)CC2)c1 | inconclusive: 18.5 µM [inhibitor, single point]
Cc1cccnc1NC(=S)NCc1ccco1 | inconclusive: 0.0029 µM [inhibitor, full curve, poor fit]
COCCCn1c(Cc2csc(Nc3ccccc3)n2)nnc1SCC(N)=O | inconclusive: 10.4 µM [inhibitor, single point]
COc1cccc(NC(=O)C(NCCC(C)C)c2ccccc2)c1 (stereo not given) | inconclusive: 7.38 µM [inhibitor, partial curve, poor fit]
N/C(=N\OC(=O)c1ccccc1F)c1cccc([N+](=O)[O-])c1 | active: 11.7 µM
CN(C)c1cc(-c2ccc([N+](=O)[O-])cc2)oc(=O)c1Cl | inconclusive: 4.15 µM [inhibitor, single point]
COc1cccc(CN2c3ccc(Br)cc3C(=O)CS2(=O)=O)c1 | inconclusive: 10.4 µM [inhibitor, single point]
Cc1cc(=O)oc2c3c(cc(OCC(=O)N[C@@H](CC(C)C)C(=O)O)c12)OC(C)(C)CC3 | inactive
CCN(CCS(=O)(=O)c1ccc(Cl)cc1)C(=O)Nc1ccc(Cl)cc1 | inconclusive: 11.7 µM [inhibitor, partial curve]
CCN1CCN(c2nc(Nc3cccc(C)c3)nc(N)c2[N+](=O)[O-])CC1 | inconclusive: 18.5 µM [inhibitor, partial curve, poor fit]

3 of the compounds above, in markdown.

| SMILES | Potency |
| --- | --- |
| COc1ccc(S(=O)(=O)N2CCOC2CNC(=O)C(=O)NCc2ccccn2)cc1C (stereo not given) | inactive |
| Cc1cc(N/N=C/c2ccccc2O)nc(-c2ccccc2O)n1 | inactive |
| CCC1=Nc2cc(C(=O)NCC3CCCO3)ccc2Sc2ccc(Cl)cc21 (stereo not given) | inconclusive: 4.15 µM [inhibitor, partial curve] |

More records.

SMILES | Potency
CC(=O)Nc1c(C(=O)O)[nH]c2ccccc12 | active: 10.4 µM
CCOC(=O)C1CCN(CCC(=O)Nc2cccc(Cl)c2)CC1 | inconclusive: 18.5 µM [inhibitor, single point]
O=C(NCC(c1ccco1)N1CCCC1)c1cccc(S(=O)(=O)N2CCOCC2)c1 (stereo not given) | inconclusive: 11.7 µM [inhibitor, single point]
CC(=O)NCCc1c(C)n(Cc2ccccc2)c2ccccc12 | inactive
C/C(CC(=O)NCc1ccco1)=N\NC(=O)CC#N | inactive
CCOC(=O)c1cc(NC(=O)Cc2ccc(S(=O)(=O)N3CCOCC3)s2)cc(C(=O)OCC)c1 | active: 5.22 µM
Cc1c(C(=O)Nc2ccc(S(=O)(=O)N(C)C3CCN(C)CC3)cc2)oc2ccccc12 | inconclusive: 11.7 µM [inhibitor, single point]
COc1ccccc1Nc1nnc(SCC(=O)NC2CCCC2)s1 | active: 9.28 µM
COc1ccc(C=O)cc1Cn1ccnc1C | inconclusive: 11.7 µM [inhibitor, partial curve]
COc1ccc(NC(=O)CN(C)S(=O)(=O)c2ccc3c(c2)c(=O)n(C)c(=O)n3C)cc1 | active: 13.1 µM
COc1ccc(C2SCC(=O)N2c2ccc(OC)cc2)cc1 (stereo not given) | inactive
CS(=O)(=O)N(CC(=O)N1CCCCCC1)c1cccc(Br)c1 | active: 11.7 µM
CCOc1cc(C2C(C#N)=C(N)Oc3n[nH]c(-c4ccccc4)c32)ccc1O (stereo not given) | inconclusive: 6.57 µM [inhibitor, partial curve, poor fit]
C=CCn1c(=NC(=O)c2ccco2)sc2cc(C(=O)OCC)ccc21 | active: 6.57 µM
CCCCCCc1c(C)c2ccc(OCC(=O)N3CCC[C@H]3C(=O)O)c(C)c2oc1=O | inconclusive: 18.5 µM [inhibitor, single point]
O=C(CSc1nc(=O)n2ccccc2n1)NC1CCCCC1 | inactive
COc1ccccc1NC(=O)CNc1ccc(F)c(Cl)c1 | active: 14.7 µM
CCOc1ccccc1CN1CCNC(=O)C1CC(=O)N(C)Cc1cnccn1 (stereo not given) | inconclusive: 8.28 µM [inhibitor, partial curve, poor fit]
CCCCNC(=O)c1cn(C)c2ccc(S(=O)(=O)N3CCCC3)cc2c1=O | inconclusive: 18.5 µM [inhibitor, single point]
CC(=O)Nc1ccc(-n2c(C)nc(=O)c(-c3ccccc3)c2C)cc1 | active: 5.22 µM
Cc1ccc(S(=O)(=O)N2CCC(NC(=O)c3cccc(C)c3)CC2)cc1 | inconclusive: 7.38 µM [inhibitor, partial curve, poor fit]
CCOC(=O)[C@H]1[C@H]2COc3ccc(Cl)cc3[C@@H]2N2C(=O)CN(Cc3ccc(C)cc3)C(=O)[C@@]12C | inconclusive: 2.33 µM [inhibitor, full curve]
